Measurements reported in PubChem BioAssay AID1508597 (Cure First, 2020).

Purpose: 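Knock-downs altering ovarian cancer cell survival with or without PARP inhibitor rucaparib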 (primary screen)
Cells: human ovarian carcinoma lines grown from tumours: OCI-P5x (papillary serous) and OCI-C5x (clear cell)
Reagents: siRNA pool against human genes, 1.25 pmol siRNA per well
Duration: 72 h or 96 h, depending on the cell culture
Conditions: rucaparib 20 µM (about IC30) or vehicle, present until read-out
Measurement: 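ATP luminescence measured at 72 or 96 h according to the culture, then normalised and expressed as percent viability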
Direction: viability, normalised: higher = more viable cells remaining
Hit rule: 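a well counts as a hit if its normalised viability is under 80 percent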
Calls: active = viability under 80%; inactive = viability 80% or more
In all, the deposit lists about 2,100 reagents; shown is an unselected part. 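Calls flag viability under 80% in either arm, not effects specific to rucaparib; the reference for percent is not stated.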 Not stated in the record: the 100% reference.

target gene | rucaparib or vehicle | cell line | technical replicate | viability, normalised (%) | call
TF (transferrin) | Rucaparib | OCI-C5x (clear cell) | 1 | 83.7 | inactive
TF (transferrin) | Rucaparib | OCI-C5x (clear cell) | 2 | 84.6 | inactive
TF (transferrin) | Rucaparib | OCI-C5x (clear cell) | 3 | 82.9 | inactive
TF (transferrin) | Rucaparib | OCI-P5x (serous) | 1 | 162 | inactive
TF (transferrin) | Rucaparib | OCI-P5x (serous) | 2 | 168 | inactive
TF (transferrin) | Rucaparib | OCI-P5x (serous) | 3 | 137 | inactive
TF (transferrin) | Vehicle | OCI-C5x (clear cell) | 1 | 67.1 | active
TF (transferrin) | Vehicle | OCI-C5x (clear cell) | 2 | 66.5 | active
TF (transferrin) | Vehicle | OCI-C5x (clear cell) | 3 | 57.4 | active
TF (transferrin) | Vehicle | OCI-P5x (serous) | 1 | 112 | inactive
TF (transferrin) | Vehicle | OCI-P5x (serous) | 2 | 127 | inactive
TF (transferrin) | Vehicle | OCI-P5x (serous) | 3 | 129 | inactive
DDR2 (discoidin domain receptor tyrosine kinase 2) | Rucaparib | OCI-C5x (clear cell) | 1 | 56.6 | active
DDR2 (discoidin domain receptor tyrosine kinase 2) | Rucaparib | OCI-C5x (clear cell) | 2 | 69.6 | active
DDR2 (discoidin domain receptor tyrosine kinase 2) | Rucaparib | OCI-C5x (clear cell) | 3 | 65.1 | active
DDR2 (discoidin domain receptor tyrosine kinase 2) | Rucaparib | OCI-P5x (serous) | 1 | 123 | inactive
DDR2 (discoidin domain receptor tyrosine kinase 2) | Rucaparib | OCI-P5x (serous) | 2 | 97.6 | inactive
DDR2 (discoidin domain receptor tyrosine kinase 2) | Rucaparib | OCI-P5x (serous) | 3 | 124 | inactive
DDR2 (discoidin domain receptor tyrosine kinase 2) | Vehicle | OCI-C5x (clear cell) | 1 | 72.1 | active
DDR2 (discoidin domain receptor tyrosine kinase 2) | Vehicle | OCI-C5x (clear cell) | 2 | 55.4 | active
DDR2 (discoidin domain receptor tyrosine kinase 2) | Vehicle | OCI-C5x (clear cell) | 3 | 67.5 | active
DDR2 (discoidin domain receptor tyrosine kinase 2) | Vehicle | OCI-P5x (serous) | 1 | 79.9 | active
DDR2 (discoidin domain receptor tyrosine kinase 2) | Vehicle | OCI-P5x (serous) | 2 | 88.1 | inactive
DDR2 (discoidin domain receptor tyrosine kinase 2) | Vehicle | OCI-P5x (serous) | 3 | 115 | inactive
KDM2B (lysine demethylase 2B) | Rucaparib | OCI-C5x (clear cell) | 1 | 48.5 | active
KDM2B (lysine demethylase 2B) | Rucaparib | OCI-C5x (clear cell) | 2 | 32.2 | active
KDM2B (lysine demethylase 2B) | Rucaparib | OCI-C5x (clear cell) | 3 | 48 | active
KDM2B (lysine demethylase 2B) | Rucaparib | OCI-P5x (serous) | 1 | 70.2 | active
KDM2B (lysine demethylase 2B) | Rucaparib | OCI-P5x (serous) | 2 | 64.8 | active
KDM2B (lysine demethylase 2B) | Rucaparib | OCI-P5x (serous) | 3 | 69.5 | active
KDM2B (lysine demethylase 2B) | Vehicle | OCI-C5x (clear cell) | 1 | 51.2 | active
KDM2B (lysine demethylase 2B) | Vehicle | OCI-C5x (clear cell) | 2 | 64.7 | active
KDM2B (lysine demethylase 2B) | Vehicle | OCI-C5x (clear cell) | 3 | 53.7 | active
KDM2B (lysine demethylase 2B) | Vehicle | OCI-P5x (serous) | 1 | 78.7 | active
KDM2B (lysine demethylase 2B) | Vehicle | OCI-P5x (serous) | 2 | 92.4 | inactive
KDM2B (lysine demethylase 2B) | Vehicle | OCI-P5x (serous) | 3 | 82.1 | inactive
MERTK (MER proto-oncogene, tyrosine kinase) | Rucaparib | OCI-C5x (clear cell) | 1 | 45.9 | active
MERTK (MER proto-oncogene, tyrosine kinase) | Rucaparib | OCI-C5x (clear cell) | 2 | 51.8 | active
MERTK (MER proto-oncogene, tyrosine kinase) | Rucaparib | OCI-C5x (clear cell) | 3 | 37.5 | active
MERTK (MER proto-oncogene, tyrosine kinase) | Rucaparib | OCI-P5x (serous) | 1 | 55.4 | active
MERTK (MER proto-oncogene, tyrosine kinase) | Rucaparib | OCI-P5x (serous) | 2 | 69 | active
MERTK (MER proto-oncogene, tyrosine kinase) | Rucaparib | OCI-P5x (serous) | 3 | 65.6 | active
MERTK (MER proto-oncogene, tyrosine kinase) | Vehicle | OCI-C5x (clear cell) | 1 | 48.5 | active
MERTK (MER proto-oncogene, tyrosine kinase) | Vehicle | OCI-C5x (clear cell) | 2 | 44.1 | active
MERTK (MER proto-oncogene, tyrosine kinase) | Vehicle | OCI-C5x (clear cell) | 3 | 53.9 | active
MERTK (MER proto-oncogene, tyrosine kinase) | Vehicle | OCI-P5x (serous) | 1 | 75.7 | active
MERTK (MER proto-oncogene, tyrosine kinase) | Vehicle | OCI-P5x (serous) | 2 | 77.3 | active
MERTK (MER proto-oncogene, tyrosine kinase) | Vehicle | OCI-P5x (serous) | 3 | 66.8 | active

Look-ups from the list.
DDR2 (discoidin domain receptor tyrosine kinase 2), rucaparib or vehicle Vehicle, cell line OCI-C5x (clear cell), technical replicate 3, viability, normalised (%): 67.5
MERTK (MER proto-oncogene, tyrosine kinase), rucaparib or vehicle Vehicle, cell line OCI-P5x (serous), technical replicate 3, call = active
Result for KDM2B (lysine demethylase 2B), rucaparib or vehicle Vehicle, cell line OCI-P5x (serous), technical replicate 1 in “call”: active
KDM2B (lysine demethylase 2B), rucaparib or vehicle Vehicle, cell line OCI-C5x (clear cell), technical replicate 2, call: active
